Test results from PubChem BioAssay AID1471 (National Center for Advancing Translational Sciences (NCATS), 2008).
About 310 (0.13%) of roughly 230,000 compounds were called active. Inconclusive means that the source gave no clear call. Such entries were picked first, then a sample of the others. Calls come from the whole dose curve; as a rule, active = well fitted activation curve with a large enough effect; inconclusive = small, poorly fitted or top-dose-only effect; inactive = no such curve, though single readings can be large or run the other way. Where the call is inconclusive, the potency comes from a doubtful curve fit.

experiment: qHTS Multiplex Assay to Identify Dual Action Probes in a Cell Model of Huntington: Cytoprotection (ATP); settings: PC12 HTT-Q103 induced, ATP luminescence, 40 h; cytoprotection (ATP increase): at 56.4 µM (top of the series) unless noted; note: nearly all actives have a fitted effect of over 45% in size;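 for cytoprotection (ATP increase): toxic huntingtin expression switched on by the ecdysone agonist tebufenozide; % of control where 0% means no effect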
Summary of the method: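 Huntington model: PC12 line, ecdysone-inducible HTTQ103 exon1–GFP, tebufenozide 100 nM. Test articles in a dose series. Endpoint luminescence from cellular ATP.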
Potency is the fitted concentration of half-maximal effect.

| SMILES | Potency | cytoprotection (ATP increase) |
| --- | --- | --- |
| Nn1cc(-c2ccccc2)nc1SCC(=O)NCC1CCCO1 (stereo not given) | inconclusive: 31.6 µM [activator, single point] | – |
| COc1ccc(C2CNC(=O)C2)cc1OC1CCCC1 (stereo not given) | inconclusive: 6.31 µM [activator, single point] | – |
| CCOc1ccc(C(CC(=O)O)NC(=O)C(Sc2ccccc2)c2ccccc2)cc1 (stereo not given) | inconclusive: 3.55 µM [activator, single point] | – |
| COc1ccc2c(c1)c1ncnc(N3CCN(Cc4ccc5c(c4)OCO5)CC3)c1n2C | inconclusive: 1.26 µM [activator, full curve, poor fit] | – |
| COCCNc1nc(-c2ccccc2C(F)(F)F)nc2ccccc12 | inconclusive: 0.794 µM [activator, single point] | – |
| CCOC(=O)CC(NC(=O)CCc1c(C)nc2nc(C)nn2c1C)c1ccc(C)cc1 (stereo not given) | inconclusive: 1.26 µM [activator, single point] | – |
| CCN(CC)CCNC(=O)C(=O)NCC1OCCN1S(=O)(=O)c1ccc([N+](=O)[O-])cc1 (stereo not given) | inconclusive: 0.447 µM [activator, partial curve] | – |
| CN(CCN1CCOCC1)Cc1nc(-c2ccc(Cl)cc2)no1 | inconclusive: 5.62 µM [activator, single point] | – |
| CN(c1ncnc(N)c1[N+](=O)[O-])C1CCS(=O)(=O)C1 (stereo not given) | – | inactive: -12% |
| CC(C)(C)CN1CCNC(=O)C1CC(=O)N1CCC(C(=O)N2CCOCC2)CC1 (stereo not given) | – | inactive: 7.1% [at 10 µM] |
| COc1cc(SC#N)ccc1N=Cc1c(C)[nH]n(-c2ccc(C)cc2C)c1=O | inconclusive: 31.6 µM [activator, single point] | – |
| CC(=O)c1ccc(OCCCN2CCCCC2)cc1 | – | inactive: 11% |
| NC(=O)C1CCN(C(=O)Cn2cccc2C(=O)c2ccccc2)CC1 | inconclusive: 2.51 µM [activator, partial curve, poor fit] | – |
| CCOC(=O)c1cc2n(c1/N=C/N(C)C)-c1ccccc1C2=O | – | inactive: -7.54% [at 10 µM] |
| CNC(=O)/C(C#N)=C/c1c(F)cccc1Cl | inconclusive: 1.26 µM [activator, single point] | – |
| O=C(c1csnn1)N1CCC2(CCCN(c3ccncc3)C2)CC1 | inconclusive: 39.8 µM [activator, single point] | – |
| CCc1ccc(C(=O)COC(=O)c2ccc(-c3nnc(-c4ccccc4)o3)cc2)cc1 | – | inactive: -3.55% |
| O=C(c1ccc2ccccc2c1)N1CCN(c2ccccc2)CC1 | – | inactive: -5.87% |
| CCCOc1ccc(C(=O)NNC(=S)NC(=O)c2ccco2)cc1 | inconclusive: 1.26 µM [activator, single point] | – |
| COCCCNC(=O)c1cccn2c(=O)c3cc4ccccc4cc3nc12 | inconclusive: 25.1 µM [activator, single point] | – |
| Fc1cccc(CSc2nnc3ccc(-c4ccncc4)nn23)c1 | inconclusive: 3.16 µM [activator, partial curve] | – |
| c1ccc(CNc2ncnc3ccc(-c4ccoc4)cc23)cc1 | – | inactive: -22.7% |
| Cc1c(C=NCCOCc2ccccc2)cnn1C | inconclusive: 5.62 µM [activator, single point] | – |
| O=C(CN1C(=O)NC2(CCCC2)C1=O)N1CCc2ccccc2C1 | inconclusive: 6.31 µM [activator, single point] | – |

| SMILES | Potency | cytoprotection (ATP increase) |
| --- | --- | --- |
| O=C1OCCN1/N=C/c1ccc([N+](=O)[O-])o1 | inconclusive: 0.1 µM [activator, full curve, poor fit] | – |
| COc1cccc(/C=N/NC(=O)Cn2ccnc2C)c1 | – | inactive: 11.7% [at 10 µM] |
| COc1cc(C)nc(Nc2nc(C)c(C(C)=O)s2)n1 | – | inactive: -20.6% |
| COc1ccc(CN(C)C(=O)CCl)cc1 | inconclusive: 5.01 µM [activator, single point] | – |
| CCN(CC)S(=O)(=O)c1cccc(NC(=O)c2cc3ccccc3o2)c1 | – | inactive: 0.485% |
| CSc1nnc(-c2cnccn2)n1CCCN1CCCC1=O | – | inactive: -7.63% |
| NC(=O)c1ncn([C@H]2O[C@@H](CO)[C@@H](O)[C@@H]2O)n1 | inconclusive: 0.794 µM [activator, single point] | – |
| COc1ccc(NC(=S)N2CCN(Cc3ccccc3)CC2)c(OC)c1 | inconclusive: 0.0071 µM [activator, full curve, poor fit] | – |
| C/C(CCN1CCCc2nc(C)c(C)cc21)=N\O[C@@H](C)c1cc(-c2c(C)cc(C)cc2C)no1 | inconclusive: 1.12 µM [activator, single point] | – |
| O=C(Nc1cccnc1)c1c(F)c(F)c(F)c(F)c1F | inconclusive: 39.8 µM [activator, single point] | – |
| Cc1nc(C(=O)N/N=C/c2[nH]ncc2Br)cs1 | inconclusive: 5.62 µM [activator, single point] | – |
| COc1ccc(N2Cc3ccccc3/C2=N\C(=O)Nc2ccccc2)cc1 | inconclusive: 1.12 µM [activator, partial curve] | – |
| COc1cc2c(C(=O)Nc3ccc4c(c3)OCO4)cn(CC(C)C)c(=O)c2cc1OC | – | inactive: -21.8% |
| [C-]#[N+]c1cc(-c2ccncc2)c(C)[nH]c1=O | inconclusive: 3.55 µM [activator, partial curve, poor fit] | – |
| COc1ccc(C2=Nn3c(nnc3-c3ccncc3)SC2)cc1OC | inconclusive: 1 µM [activator, full curve, poor fit] | – |
| CCN(CC)S(=O)(=O)c1ccc(N2CCOCC2)c(NS(=O)(=O)c2cc(C(C)(C)C)ccc2C)c1 | inconclusive: 1.12 µM [activator, single point] | – |
| Cc1ccc(SCC2=NNC(=O)C2)cc1 | inconclusive: 2 µM [activator, partial curve, poor fit] | – |
| Cn1c(=O)[nH]c(=O)c2c1nc(N1CCOCC1)n2CCCSc1ncccn1 | – | inactive: -37.4% |
| Cc1ccc(NC(=O)CSc2ncnc3ccccc23)cc1S(=O)(=O)N1CCOCC1 | inconclusive: 5.62 µM [activator, single point] | – |
| CC(=O)OCC(CCn1cnc2cnc(N)nc21)COC(C)=O | inconclusive: 1.12 µM [activator, single point] | – |
| COC(=O)c1ccc2c(=O)n(NC(C)=O)c(=S)[nH]c2c1 | inconclusive: 5.62 µM [activator, single point] | – |
| Nc1ccc(-c2ccc(C(=O)O)s2)cn1 | inconclusive: 1 µM [activator, single point] | – |
| O=C(Cc1ccc(S(=O)(=O)N2CCOCC2)s1)Nc1nc2c(s1)CCCC2 | – | inactive: -10.5% |
| CCCC(=O)N1CCN(c2ccc(NC(=O)c3ccc([N+](=O)[O-])o3)cc2Cl)CC1 | inconclusive: 4.47 µM [activator, single point] | – |

Of the compounds above, these contain a thiophene ring, fused or not:

| SMILES | Potency | cytoprotection (ATP increase) |
| --- | --- | --- |
| Nc1ccc(-c2ccc(C(=O)O)s2)cn1 | inconclusive: 1 µM [activator, single point] | – |
| O=C(Cc1ccc(S(=O)(=O)N2CCOCC2)s1)Nc1nc2c(s1)CCCC2 | – | inactive: -10.5% |

Additional structures follow:

| SMILES | Potency | cytoprotection (ATP increase) |
| --- | --- | --- |
| CCn1c(SCC(=O)c2ccc(OC)cc2)nnc1C(C)NC(=O)c1ccc(OC)cc1 (stereo not given) | – | inactive: 19.8% [at 10 µM] |
| Cc1ccc([N+](=O)[O-])cc1NC(=O)C(C)NS(=O)(=O)c1ccc(F)cc1 (stereo not given) | – | inactive: -10.6% |
| O=C(CSc1nc2[nH]ncc2c(=O)[nH]1)N1CCCC1 | inconclusive: 5.01 µM [activator, single point] | – |
| CCOC(=O)c1ccc(NC(=S)N(CCCN2CCCC(C)C2)Cc2cccs2)cc1 (stereo not given) | inconclusive: 5.62 µM [activator, single point] | – |
| CC(C)NS(=O)(=O)c1ccc(Oc2ncc(C(F)(F)F)cc2Cl)cc1 | inconclusive: 0.708 µM [activator, single point] | – |
| Nc1cc(C(Cl)=C(Cl)Cl)c(S(N)(=O)=O)cc1S(N)(=O)=O | inconclusive: 0.224 µM [activator, partial curve, poor fit] | – |
| Fc1ccccc1Nc1nc(-c2ccncc2)nc2ccccc12 | inconclusive: 1.58 µM [activator, single point] | – |
| O=C(Nc1ccccc1)C(=O)Nc1cccnc1 | – | inactive: -15% [at 10 µM] |
| Cc1noc(C)c1C(=O)N1CCC2(CCCN(C(=O)Nc3cccc(C#N)c3)C2)CC1 | inconclusive: 6.31 µM [activator, single point] | – |
| Clc1ccccc1-c1nc(-n2ccnc2)c2ccccc2n1 | inconclusive: 3.55 µM [activator, full curve] | – |
| COc1ccc(S(=O)(=O)N2CCCCCC2)cc1N | – | inactive: 8.15% |
| COCCN1C(=O)N[C@@H](CCc2ccccc2)C(C(C)=O)=C1C | inconclusive: 5.62 µM [activator, full curve] | – |
| c1cnc2ccc(C(c3nnnn3C3CCCC3)N3CCSCC3)cc2c1 (stereo not given) | – | inactive: 2.06% [at 10 µM] |
| CSc1nnc(C)c(=O)n1COC(=O)c1ccc([N+](=O)[O-])cc1 | inconclusive: 1.26 µM [activator, single point] | – |
| CCC(=O)[C@@]1(O)C(=O)N2C(=C3C(=O)OCCC31)N(Cc1ccccc1)C(C)=C(C(=O)OC)C2c1ccccc1 (stereo not given in full) | – | inactive: -8.53% [at 10 µM] |
| C1CNCCN1 | inconclusive: 12.6 µM [activator, single point] | – |
| O=C(CSC1=NCCS1)NC1CCCCC1 | – | inactive: 18.4% [at 0.074 µM] |
| CCOC(=O)C1CCN(c2ccc(Cl)nn2)CC1 | inconclusive: 11.2 µM [activator, partial curve] | – |
| CC(=O)c1ccc(NC(=O)c2ccc3nc(-c4ccco4)c(-c4ccco4)nc3c2)cc1 | – | inactive: -24.5% |
| COc1ccc2c(CCNC(=O)c3ccco3)c[nH]c2c1 | – | inactive: -10.4% |
| CC(NC(=S)Nc1ccccc1)C1COc2ccccc2O1 (stereo not given) | inconclusive: 1.26 µM [activator, single point] | – |
| COC(=O)c1c(NC(=O)c2ccc(OC(C)C)cc2)sc2c1CC(C)(C)NC2(C)C | – | inactive: -22.6% [at 10 µM] |
